Laboratory results from article PMC11612967.
No constants are given. Whether binding was seen depends on the method and setting. In cells and extracts the contact can be indirect. Some results given as binding are weak or reduced against the parent protein; the word gives no strength.

T1: S. cerevisiae Nse2 (S. cerevisiae), P38632
T1 chain: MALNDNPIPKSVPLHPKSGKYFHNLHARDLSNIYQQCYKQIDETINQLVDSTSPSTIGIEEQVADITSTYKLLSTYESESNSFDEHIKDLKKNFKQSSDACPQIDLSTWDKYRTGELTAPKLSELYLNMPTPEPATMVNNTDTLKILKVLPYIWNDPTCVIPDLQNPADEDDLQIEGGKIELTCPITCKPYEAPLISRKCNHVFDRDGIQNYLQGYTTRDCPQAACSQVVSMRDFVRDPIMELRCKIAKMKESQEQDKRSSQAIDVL


Biological target: T1, S. cerevisiae Nse2 (S. cerevisiae), …
Assay: pull-down; S. cerevisiae Smc5/6 subunits co-expressed in E. coli Rosetta (DE3), one subunit with a Twin-Strep tag (N- or C-terminal); clarified lysate on Strep-Tactin Sepharose, 1 h at 4°C, 50 mM Tris-HCl pH 7.5, 300 mM NaCl, 5% glycerol; eluted with 2.5 mM desthiobiotin; Coomassie-stained SDS-PAGE
Details: remark: other sources report otherwise

binding | Binder
binds | S. cerevisiae Nse3, Q05541 1-303 (protein) MSSIDNDSDVDLTEDLAVAKIVKENPVARKMVRYILSRGESQNSIITRNKLQSVIHEAAREENIAKPSFSKMFMDINAILYNVYGFELQGLPSKNNMNAGGNGSNSNTNKSMPEPLGHRAQKFILLNNVPHSKNFDDFKILQSAHTYEELIVTGEYIGDDIASGTSNTLESKLSTDRDLVYKGVLSVILCIVFFSKNNILHQELIKFLETFGIPSDGSKIAILNITIEDLIKSLEKREYIVRLEEKSDTDGEVISYRIGRRTQAELGLESLEKLVQEIMGLEKEQTKSLHDDIIKSIGDSYSI
binds | S. cerevisiae Nse4, P43124 1-402 (protein) MSSTVISRKRRNSTVTEPDSSGETRKQKKSRSDEKSSSSKDGDPQLEFKVLQGYRDLESEMHKGRAQVTRTGDIGVAMDNLNAVDSLFNKVIGIKNNGLFAHDARAMVSISELAQISVRNLKFDDSRSMVNLENIVNSLKRYMLKEHFKLNNIAENRNDLTLAADEQSAADQQEESDGDIDRTPDDNHTDKATSSFKATSMRHSYLQQFSHYNEFSQFNWFRIGALYNTISKNAPITDHLMGPLSIEKKPRVLTQRRRNNDQVGEKITAEKITQHSLNSTQQETTPEQVKKCFKKLSKKLGPEGSINLFKFIIDPNSFSRSIENLFYTSFLIKEGKLLMEHDEEGLPTIKIKQSISHTDSRSKEIERQRRRAAHQNHIIFQMDMPTWRKLIKKYNITSPFLD
